In one assay the target is T1, SoYb (Drosophila) (UniProt Q9VL52).
T1 sequence: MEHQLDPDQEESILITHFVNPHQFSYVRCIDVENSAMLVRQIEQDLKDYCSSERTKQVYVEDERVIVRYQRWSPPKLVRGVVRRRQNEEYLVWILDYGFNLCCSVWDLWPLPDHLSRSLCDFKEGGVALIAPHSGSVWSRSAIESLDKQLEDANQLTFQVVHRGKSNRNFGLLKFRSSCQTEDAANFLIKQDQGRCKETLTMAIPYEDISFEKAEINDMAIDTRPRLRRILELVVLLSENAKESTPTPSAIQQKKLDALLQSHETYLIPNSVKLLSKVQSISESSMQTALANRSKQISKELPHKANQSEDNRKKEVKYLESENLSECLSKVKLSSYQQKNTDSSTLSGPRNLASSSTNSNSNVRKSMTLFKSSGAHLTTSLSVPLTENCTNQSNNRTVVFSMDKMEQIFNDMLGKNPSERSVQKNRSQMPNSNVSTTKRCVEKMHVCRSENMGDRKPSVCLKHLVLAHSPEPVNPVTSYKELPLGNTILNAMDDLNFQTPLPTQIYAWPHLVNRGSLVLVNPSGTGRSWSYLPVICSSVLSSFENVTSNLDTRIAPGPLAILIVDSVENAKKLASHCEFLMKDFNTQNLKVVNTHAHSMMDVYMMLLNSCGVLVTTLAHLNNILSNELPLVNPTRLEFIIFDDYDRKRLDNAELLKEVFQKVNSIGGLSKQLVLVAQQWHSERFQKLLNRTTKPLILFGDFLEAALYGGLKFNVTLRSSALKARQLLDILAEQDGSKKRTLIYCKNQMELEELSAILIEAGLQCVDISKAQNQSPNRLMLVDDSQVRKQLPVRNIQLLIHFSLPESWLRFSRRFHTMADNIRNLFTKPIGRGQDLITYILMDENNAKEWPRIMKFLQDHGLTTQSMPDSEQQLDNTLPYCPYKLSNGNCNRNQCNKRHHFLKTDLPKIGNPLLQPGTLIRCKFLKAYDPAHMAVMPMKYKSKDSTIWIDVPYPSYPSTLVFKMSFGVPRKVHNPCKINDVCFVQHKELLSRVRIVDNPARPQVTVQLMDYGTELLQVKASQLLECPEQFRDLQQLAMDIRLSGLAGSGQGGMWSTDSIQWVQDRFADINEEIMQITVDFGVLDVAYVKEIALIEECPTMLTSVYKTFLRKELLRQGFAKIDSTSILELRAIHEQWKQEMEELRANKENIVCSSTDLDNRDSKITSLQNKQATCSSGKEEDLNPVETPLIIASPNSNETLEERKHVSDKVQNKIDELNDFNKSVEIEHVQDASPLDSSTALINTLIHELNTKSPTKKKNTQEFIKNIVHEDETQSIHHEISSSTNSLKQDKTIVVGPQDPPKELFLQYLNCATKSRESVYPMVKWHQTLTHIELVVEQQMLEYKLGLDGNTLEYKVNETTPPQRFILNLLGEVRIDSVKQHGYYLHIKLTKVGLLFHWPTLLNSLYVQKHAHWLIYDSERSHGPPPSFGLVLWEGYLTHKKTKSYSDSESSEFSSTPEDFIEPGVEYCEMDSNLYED
The experiment in a line: ReLo.

In assay [1] the target is T2, BoYb NTD_MUT (Drosophila) (UniProt Q9VNP5).
T2 sequence: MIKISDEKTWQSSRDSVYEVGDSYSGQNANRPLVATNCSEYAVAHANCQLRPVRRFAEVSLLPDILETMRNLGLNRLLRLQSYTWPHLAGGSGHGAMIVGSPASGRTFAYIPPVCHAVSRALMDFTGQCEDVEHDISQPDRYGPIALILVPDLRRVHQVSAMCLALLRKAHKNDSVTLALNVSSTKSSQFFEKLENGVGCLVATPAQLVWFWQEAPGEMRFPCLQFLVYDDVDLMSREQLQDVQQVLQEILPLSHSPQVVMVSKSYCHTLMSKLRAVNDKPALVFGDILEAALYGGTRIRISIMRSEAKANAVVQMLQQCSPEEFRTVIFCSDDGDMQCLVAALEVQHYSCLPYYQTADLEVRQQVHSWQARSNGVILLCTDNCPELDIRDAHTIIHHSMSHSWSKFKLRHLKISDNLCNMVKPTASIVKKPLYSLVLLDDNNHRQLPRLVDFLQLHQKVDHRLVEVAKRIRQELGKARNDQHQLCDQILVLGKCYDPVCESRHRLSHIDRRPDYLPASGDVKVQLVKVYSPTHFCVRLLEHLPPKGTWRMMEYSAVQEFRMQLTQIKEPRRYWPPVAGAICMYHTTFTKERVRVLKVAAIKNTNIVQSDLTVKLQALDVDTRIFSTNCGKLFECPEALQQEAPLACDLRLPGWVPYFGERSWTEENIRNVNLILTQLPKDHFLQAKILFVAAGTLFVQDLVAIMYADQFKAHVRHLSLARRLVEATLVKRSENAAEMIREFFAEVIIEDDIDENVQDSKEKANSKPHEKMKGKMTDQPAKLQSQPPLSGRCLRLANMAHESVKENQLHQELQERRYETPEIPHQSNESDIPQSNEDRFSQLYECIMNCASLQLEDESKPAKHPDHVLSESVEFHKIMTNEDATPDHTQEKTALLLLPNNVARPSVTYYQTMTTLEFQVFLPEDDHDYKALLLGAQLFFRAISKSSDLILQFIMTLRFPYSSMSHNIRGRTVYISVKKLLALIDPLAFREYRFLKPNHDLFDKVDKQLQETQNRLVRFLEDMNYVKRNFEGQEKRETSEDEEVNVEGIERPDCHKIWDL
The experiment in a line: ReLo.

These are yes or no findings as the source states them, for the method shown. Some entries that bind do so weakly or less than the wild type.

B1: Vreteno (protein, UniProt Q9VCU7 1-691)
chain: MESESSQDDWSAFDPMSREYYDQVGNRYTNESGQKLIMEAPLPPKDEKEQRATRQAKYPYLVVPKSSPYVTEKMLINFFGRALIKEMEFRRLSRVYFVYFENIASLETAQQRVQRYPNLIKCITGRPQKEREITSDPVTSTEPMPTPGPAISATERTPVNHNREVPISTGGQNHPEFFRPPLVTKDDYKRGSLLATNDPIQRYLNVKYEFALERHDIYKLKDETRIPQVVLHFRSGRTIPLSTVAVTEEDKTKSLLEDGVSKCVVCQNWTDTFCKLCKMPFCNASCFADVAEQHKQACGKGEILNLDEKVGRKYPKPGLPPSGSKVRITAFEQTNVVYVRSADIQIDIAYYTVLTEVMMLGKDASKLQSTPVCGQIVLYKFEGHMSRAMVLNVDNIKEIYVVFIDFGSVEVTQLERLYECSSYLAGLTCYPVAVKLRGVPRRFVGPNIREVMYELDQSLVFNIKYSSREYDTSKGMQVVVMTEIDINRSLNRLFKTILTPVEPSVSDLGYKEDCLPYIPLHCGKNINVVVMDNTFIQCGFIYCTSIDLAYEVTKMQRDIQEYGEKIAKCATYAPPINELCIAKYEGKWRRGLSVELVGDGYPSILFIDYGNIVPTHVTDIRPYPPQFIFPIMTTQLDLIGVPEKPTDEQIKWLDKNYPIGSVITCSEITFDEETNSYSTRIEKLQEFLSLD
Turning to B1, the binding result (in the assay with SoYb (Drosophila); in assay [1]) was “binds” throughout.

The values are drawn from paper doi:10.1101/2024.05.31.596839.
